In the supplement of paper PMC11732987, “Enantioselective OTUD7B fragment discovery through chemoproteomics screening and high-throughput optimisation” (Communications Chemistry, 2025):
The list shows a part of the results. The data scatter; read single values as rough.

By UniProt entry, the sequences of proteins in these tests, tags left out. Where a name states a change or a piece, a line headed by the entry shows the natural chain unless it says otherwise. Residues count along the entry.
UniProt Q14683: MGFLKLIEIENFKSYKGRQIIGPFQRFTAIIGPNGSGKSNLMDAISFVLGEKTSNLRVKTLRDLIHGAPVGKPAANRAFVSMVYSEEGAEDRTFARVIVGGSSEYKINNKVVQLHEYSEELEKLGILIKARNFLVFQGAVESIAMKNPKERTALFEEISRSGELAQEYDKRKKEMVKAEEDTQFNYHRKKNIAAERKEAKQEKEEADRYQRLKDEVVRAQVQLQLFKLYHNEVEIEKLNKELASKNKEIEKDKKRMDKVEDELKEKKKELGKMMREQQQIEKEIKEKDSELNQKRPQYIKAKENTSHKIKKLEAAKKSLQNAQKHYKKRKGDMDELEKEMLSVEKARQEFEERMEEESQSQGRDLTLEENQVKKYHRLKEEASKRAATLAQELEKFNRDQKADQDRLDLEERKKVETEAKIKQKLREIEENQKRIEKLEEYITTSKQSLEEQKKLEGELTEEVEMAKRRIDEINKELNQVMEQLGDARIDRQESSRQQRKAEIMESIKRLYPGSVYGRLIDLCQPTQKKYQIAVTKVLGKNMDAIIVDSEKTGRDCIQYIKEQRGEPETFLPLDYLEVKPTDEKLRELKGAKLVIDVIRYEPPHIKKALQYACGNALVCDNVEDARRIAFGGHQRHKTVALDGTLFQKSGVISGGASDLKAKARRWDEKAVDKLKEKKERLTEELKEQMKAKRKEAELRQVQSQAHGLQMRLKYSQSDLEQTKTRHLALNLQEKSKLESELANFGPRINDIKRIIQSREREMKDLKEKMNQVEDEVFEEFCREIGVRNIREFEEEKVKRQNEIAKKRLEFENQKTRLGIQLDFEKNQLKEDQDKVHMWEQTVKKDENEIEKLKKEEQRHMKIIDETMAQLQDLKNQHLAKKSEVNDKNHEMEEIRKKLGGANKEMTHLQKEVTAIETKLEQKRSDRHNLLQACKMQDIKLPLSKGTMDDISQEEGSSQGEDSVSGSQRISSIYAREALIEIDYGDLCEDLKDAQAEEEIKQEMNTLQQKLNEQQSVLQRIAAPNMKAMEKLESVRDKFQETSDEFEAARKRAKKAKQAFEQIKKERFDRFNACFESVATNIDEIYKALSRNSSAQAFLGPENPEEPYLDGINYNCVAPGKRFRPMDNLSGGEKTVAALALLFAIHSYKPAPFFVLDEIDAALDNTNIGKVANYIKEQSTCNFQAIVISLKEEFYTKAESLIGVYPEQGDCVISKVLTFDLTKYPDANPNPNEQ
UniProt Q8N0X7, 389-414: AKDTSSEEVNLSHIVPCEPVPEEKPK
UniProt P05141: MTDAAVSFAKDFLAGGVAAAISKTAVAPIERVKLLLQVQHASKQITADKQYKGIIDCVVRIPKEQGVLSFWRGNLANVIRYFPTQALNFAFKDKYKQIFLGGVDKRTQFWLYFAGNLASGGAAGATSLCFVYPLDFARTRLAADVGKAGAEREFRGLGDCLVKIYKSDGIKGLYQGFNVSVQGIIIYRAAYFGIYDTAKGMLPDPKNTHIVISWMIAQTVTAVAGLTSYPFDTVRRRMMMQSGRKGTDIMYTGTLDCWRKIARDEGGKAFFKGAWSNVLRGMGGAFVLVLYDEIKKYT
UniProt O14544: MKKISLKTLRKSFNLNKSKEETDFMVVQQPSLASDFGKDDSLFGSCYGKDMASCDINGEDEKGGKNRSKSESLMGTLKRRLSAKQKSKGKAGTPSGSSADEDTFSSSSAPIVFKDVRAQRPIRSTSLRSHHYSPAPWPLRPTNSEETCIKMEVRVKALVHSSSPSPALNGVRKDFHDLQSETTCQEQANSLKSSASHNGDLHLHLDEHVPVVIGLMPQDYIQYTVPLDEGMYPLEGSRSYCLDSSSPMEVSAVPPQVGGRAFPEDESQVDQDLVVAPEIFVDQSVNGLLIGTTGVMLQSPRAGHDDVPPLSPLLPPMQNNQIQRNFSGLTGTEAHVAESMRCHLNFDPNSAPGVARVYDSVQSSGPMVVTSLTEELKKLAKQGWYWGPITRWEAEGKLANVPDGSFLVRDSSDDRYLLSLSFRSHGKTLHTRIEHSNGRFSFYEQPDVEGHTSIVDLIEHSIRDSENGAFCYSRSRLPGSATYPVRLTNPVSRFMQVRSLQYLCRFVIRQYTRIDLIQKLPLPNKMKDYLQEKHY
UniProt Q8IX90: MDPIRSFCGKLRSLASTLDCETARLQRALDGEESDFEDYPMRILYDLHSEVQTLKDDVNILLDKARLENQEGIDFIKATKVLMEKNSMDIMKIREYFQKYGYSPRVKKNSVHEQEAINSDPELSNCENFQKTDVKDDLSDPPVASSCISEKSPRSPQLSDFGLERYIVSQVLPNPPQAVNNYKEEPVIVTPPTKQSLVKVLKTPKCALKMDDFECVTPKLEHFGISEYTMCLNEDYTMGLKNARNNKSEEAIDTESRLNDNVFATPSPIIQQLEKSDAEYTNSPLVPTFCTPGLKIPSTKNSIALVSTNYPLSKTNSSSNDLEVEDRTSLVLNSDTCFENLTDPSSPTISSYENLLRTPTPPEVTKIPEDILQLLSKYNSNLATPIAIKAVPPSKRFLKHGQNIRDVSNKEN
UniProt A6NHR9: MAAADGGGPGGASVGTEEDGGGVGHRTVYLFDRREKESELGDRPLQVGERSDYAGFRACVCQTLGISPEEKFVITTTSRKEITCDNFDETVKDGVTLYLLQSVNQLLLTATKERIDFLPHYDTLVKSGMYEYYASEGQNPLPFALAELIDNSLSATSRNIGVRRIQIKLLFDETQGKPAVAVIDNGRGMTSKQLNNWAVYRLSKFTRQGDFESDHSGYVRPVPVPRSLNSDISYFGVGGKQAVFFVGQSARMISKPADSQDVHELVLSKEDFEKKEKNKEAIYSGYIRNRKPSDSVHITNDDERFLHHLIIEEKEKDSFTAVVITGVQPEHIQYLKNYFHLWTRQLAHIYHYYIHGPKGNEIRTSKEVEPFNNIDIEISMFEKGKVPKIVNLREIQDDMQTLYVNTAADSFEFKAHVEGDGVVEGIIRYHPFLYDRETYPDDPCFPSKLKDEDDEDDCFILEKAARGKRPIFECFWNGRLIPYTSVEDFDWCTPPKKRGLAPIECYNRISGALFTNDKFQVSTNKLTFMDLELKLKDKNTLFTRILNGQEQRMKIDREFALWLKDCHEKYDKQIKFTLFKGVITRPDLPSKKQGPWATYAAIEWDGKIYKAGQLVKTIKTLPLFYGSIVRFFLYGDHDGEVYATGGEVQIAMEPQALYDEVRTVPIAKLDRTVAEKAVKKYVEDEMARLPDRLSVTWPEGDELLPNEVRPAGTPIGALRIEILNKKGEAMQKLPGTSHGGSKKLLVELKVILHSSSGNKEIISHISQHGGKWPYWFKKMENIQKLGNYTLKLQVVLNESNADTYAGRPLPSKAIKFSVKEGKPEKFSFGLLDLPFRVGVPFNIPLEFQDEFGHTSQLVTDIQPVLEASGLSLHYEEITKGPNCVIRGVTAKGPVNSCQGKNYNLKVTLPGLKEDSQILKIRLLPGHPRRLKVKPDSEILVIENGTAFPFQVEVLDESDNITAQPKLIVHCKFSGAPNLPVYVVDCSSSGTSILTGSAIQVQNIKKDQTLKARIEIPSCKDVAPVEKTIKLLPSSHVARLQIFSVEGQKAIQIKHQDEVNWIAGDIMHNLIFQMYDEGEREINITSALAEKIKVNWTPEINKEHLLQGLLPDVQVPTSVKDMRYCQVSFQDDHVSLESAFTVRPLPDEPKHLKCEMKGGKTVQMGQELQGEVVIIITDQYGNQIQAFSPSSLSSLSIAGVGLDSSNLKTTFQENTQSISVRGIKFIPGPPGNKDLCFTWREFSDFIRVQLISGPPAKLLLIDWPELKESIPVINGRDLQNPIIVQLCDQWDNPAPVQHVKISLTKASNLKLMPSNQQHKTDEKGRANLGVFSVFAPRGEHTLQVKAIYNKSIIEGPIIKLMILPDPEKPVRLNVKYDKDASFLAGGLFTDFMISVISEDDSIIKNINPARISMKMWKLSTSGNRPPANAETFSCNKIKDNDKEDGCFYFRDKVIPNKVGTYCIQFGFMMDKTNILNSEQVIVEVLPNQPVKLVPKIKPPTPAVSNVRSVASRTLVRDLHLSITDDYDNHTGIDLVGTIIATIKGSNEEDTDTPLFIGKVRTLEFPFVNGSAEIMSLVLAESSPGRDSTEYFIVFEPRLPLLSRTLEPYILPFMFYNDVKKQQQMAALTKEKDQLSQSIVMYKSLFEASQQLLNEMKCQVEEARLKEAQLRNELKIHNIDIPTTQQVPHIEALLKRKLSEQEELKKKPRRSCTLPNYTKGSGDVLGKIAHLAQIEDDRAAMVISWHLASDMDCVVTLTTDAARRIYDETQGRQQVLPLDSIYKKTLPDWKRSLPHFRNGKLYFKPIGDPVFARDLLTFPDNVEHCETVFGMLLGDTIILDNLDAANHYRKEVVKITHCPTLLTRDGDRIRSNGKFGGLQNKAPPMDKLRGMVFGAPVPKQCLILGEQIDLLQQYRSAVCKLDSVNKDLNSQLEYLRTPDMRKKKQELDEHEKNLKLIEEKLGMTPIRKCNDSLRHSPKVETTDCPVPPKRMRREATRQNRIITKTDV
UniProt P35712: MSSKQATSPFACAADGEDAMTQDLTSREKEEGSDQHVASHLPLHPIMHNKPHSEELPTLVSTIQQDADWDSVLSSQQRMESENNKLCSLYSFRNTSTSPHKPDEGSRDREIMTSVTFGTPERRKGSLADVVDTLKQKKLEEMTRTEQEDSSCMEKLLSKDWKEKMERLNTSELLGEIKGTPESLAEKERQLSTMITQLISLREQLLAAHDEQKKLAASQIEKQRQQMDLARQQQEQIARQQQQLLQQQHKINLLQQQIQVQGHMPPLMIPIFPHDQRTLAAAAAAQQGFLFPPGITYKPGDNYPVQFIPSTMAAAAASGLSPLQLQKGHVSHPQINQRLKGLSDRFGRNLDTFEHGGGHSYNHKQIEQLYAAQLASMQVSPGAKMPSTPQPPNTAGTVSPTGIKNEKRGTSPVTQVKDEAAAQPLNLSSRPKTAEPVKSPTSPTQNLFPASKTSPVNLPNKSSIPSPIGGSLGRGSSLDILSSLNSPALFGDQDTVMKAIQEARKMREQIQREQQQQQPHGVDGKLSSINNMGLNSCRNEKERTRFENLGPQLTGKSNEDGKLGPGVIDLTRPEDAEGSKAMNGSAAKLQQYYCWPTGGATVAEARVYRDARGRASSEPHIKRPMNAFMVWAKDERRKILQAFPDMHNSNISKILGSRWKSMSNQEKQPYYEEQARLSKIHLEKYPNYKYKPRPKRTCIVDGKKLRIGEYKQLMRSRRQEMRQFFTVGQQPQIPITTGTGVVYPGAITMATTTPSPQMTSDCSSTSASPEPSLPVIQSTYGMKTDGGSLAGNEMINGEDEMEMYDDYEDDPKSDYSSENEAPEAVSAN
UniProt Q15796, whole entry, looked up: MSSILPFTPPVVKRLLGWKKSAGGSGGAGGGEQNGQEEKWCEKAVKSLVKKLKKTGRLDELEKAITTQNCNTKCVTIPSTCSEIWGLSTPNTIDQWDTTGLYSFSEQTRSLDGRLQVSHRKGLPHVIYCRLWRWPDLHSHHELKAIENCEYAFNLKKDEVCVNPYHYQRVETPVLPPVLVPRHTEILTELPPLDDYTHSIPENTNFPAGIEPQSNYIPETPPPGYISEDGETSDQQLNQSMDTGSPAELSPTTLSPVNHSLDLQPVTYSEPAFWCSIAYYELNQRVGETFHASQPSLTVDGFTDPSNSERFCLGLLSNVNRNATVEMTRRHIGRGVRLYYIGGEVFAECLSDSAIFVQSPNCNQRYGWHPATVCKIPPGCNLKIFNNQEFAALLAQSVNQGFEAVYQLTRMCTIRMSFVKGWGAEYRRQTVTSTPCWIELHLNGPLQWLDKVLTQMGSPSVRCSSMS
UniProt O14975: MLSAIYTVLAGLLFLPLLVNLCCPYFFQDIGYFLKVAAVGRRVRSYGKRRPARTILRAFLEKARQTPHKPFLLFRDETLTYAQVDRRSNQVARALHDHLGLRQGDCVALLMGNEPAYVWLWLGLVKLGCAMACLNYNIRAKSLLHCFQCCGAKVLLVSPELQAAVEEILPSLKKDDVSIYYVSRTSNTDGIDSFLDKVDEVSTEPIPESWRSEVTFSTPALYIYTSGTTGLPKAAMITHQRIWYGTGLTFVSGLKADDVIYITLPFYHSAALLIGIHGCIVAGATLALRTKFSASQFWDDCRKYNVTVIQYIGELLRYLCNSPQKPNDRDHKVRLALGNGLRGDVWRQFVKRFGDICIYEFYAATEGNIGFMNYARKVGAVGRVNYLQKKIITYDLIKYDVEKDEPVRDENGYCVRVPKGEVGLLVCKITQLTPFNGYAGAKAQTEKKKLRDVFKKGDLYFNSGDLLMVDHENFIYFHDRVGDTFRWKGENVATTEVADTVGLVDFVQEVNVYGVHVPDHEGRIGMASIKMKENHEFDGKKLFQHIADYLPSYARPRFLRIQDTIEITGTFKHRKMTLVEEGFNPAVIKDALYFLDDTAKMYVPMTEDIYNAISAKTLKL

compound: ClCC(=O)N[C@@H]1CCCc2ccccc12; test: log2 mean competition ratio of IA-DTB cysteine labelling (DMSO/compound) (log2 ratio); higher = stronger cysteine engagement by compound; settings: 50 µM; treatment time: 4 h; cell line lysate: HEK293T
Experimental: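 IA-DTB competitive cysteine chemoproteomics in HEK293T RIPA lysate. Lysates were treated with compound 29 or 30 at 50 or 200 µM for 4 h, then IA-DTB (500 µM, 1 h), trypsin-digested, NeutrAvidin-enriched and analysed by diaPASEF. Competition ratio = intensity DMSO / intensity compound (n=4 treated, n=64 DMSO); binding: mean log2 CR ≥ 1 and p ≤ 0.05 plus QC filters. Target is the cysteine site.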

Q: Which “log2 mean competition ratio” value does the source give for SLC1A4 C355 (UniProt P43007) here?
A: -0.054

Q: SMC1A C1210 (UniProt Q14683) was tested. Which “log2 mean competition ratio” value did it give?
A: -0.218

Q: SPART C405 (UniProt Q8N0X7) was tested. Which “log2 mean competition ratio” value did it give?
A: -0.363

Q: Which “log2 mean competition ratio” value does the source give for SLC27A3 C364 here?
A: -0.193

Q: How did the “log2 mean competition ratio” value turn out when SLC25A5 C57 (UniProt P05141) was run?
A: -0.0216

Q: SMARCD1 C339 (UniProt Q96GM5) was tested. Which “log2 mean competition ratio” value did it give?
A: -0.33

Q: SMU1 C298 (UniProt Q2TAY7) was tested. Which “log2 mean competition ratio” value did it give?
A: -0.0818

Q: SOCS6 C342 (UniProt O14544) was tested. Which “log2 mean competition ratio” value did it give?
A: -0.324

Q: Which “log2 mean competition ratio” value does the source give for SNRNP200 C428 (UniProt O75643) here?
A: -0.138

Q: For SKA3 C20 (UniProt Q8IX90), which “log2 mean competition ratio” value is on record?
A: -0.0323

Q: SMCHD1 C1710 (UniProt A6NHR9) was tested. Which “log2 mean competition ratio” value did it give?
A: -0.0904

Q: For SMO C683, which “log2 mean competition ratio” value is on record?
A: -0.143

Q: With SOX6 C152 (UniProt P35712) as the target, how does the “log2 mean competition ratio” value read?
A: 0.0571

Q: SMAD2 C70 (UniProt Q15796) was tested. Which “log2 mean competition ratio” value did it give?
A: 0.133

Q: With SLC27A2 C301 (UniProt O14975) as the target, how does the “log2 mean competition ratio” value read?
A: -0.437

Q: Which “log2 mean competition ratio” value does the source give for SKIV2L C579 (UniProt Q15477) here?
A: -0.0596

Q: How did the “log2 mean competition ratio” value turn out when SLC47A1 C466 was run?
A: 0.273

Q: For SMPD4 C164 (UniProt Q9NXE4), which “log2 mean competition ratio” value is on record?
A: -0.233

Q: SLC39A6 C146 (UniProt Q13433) was tested. Which “log2 mean competition ratio” value did it give?
A: 0.0598

Q: SLC25A13 C565 (UniProt Q9UJS0) was tested. Which “log2 mean competition ratio” value did it give?
A: 0.133

same assay, conditions: 200 µM; treatment time: 4 h; cell line lysate: HEK293T

Q: SLC1A4 C355 (UniProt P43007) was tested. Which “log2 mean competition ratio” value did it give?
A: 0.429

Q: With SMC1A C1210 (UniProt Q14683) as the target, how does the “log2 mean competition ratio” value read?
A: -0.0122

Q: SPART C405 (UniProt Q8N0X7) was tested. Which “log2 mean competition ratio” value did it give?
A: -0.228

Q: For SLC27A3 C364, which “log2 mean competition ratio” value is on record?
A: -0.356

Q: How did the “log2 mean competition ratio” value turn out when SLC25A5 C57 (UniProt P05141) was run?
A: -0.0735

Q: Which “log2 mean competition ratio” value does the source give for SMARCD1 C339 (UniProt Q96GM5) here?
A: -0.41

Q: How did the “log2 mean competition ratio” value turn out when SMU1 C298 (UniProt Q2TAY7) was run?
A: -0.204

Q: Which “log2 mean competition ratio” value does the source give for SOCS6 C342 (UniProt O14544) here?
A: 0.0767

Q: With SNRNP200 C428 (UniProt O75643) as the target, how does the “log2 mean competition ratio” value read?
A: -0.131

Q: Which “log2 mean competition ratio” value does the source give for SKA3 C20 (UniProt Q8IX90) here?
A: 0.0824

Q: Which “log2 mean competition ratio” value does the source give for SMCHD1 C1710 (UniProt A6NHR9) here?
A: -0.162

Q: SMO C683 was tested. Which “log2 mean competition ratio” value did it give?
A: 0.203

Q: For SOX6 C152 (UniProt P35712), which “log2 mean competition ratio” value is on record?
A: 0.715

Q: SMAD2 C70 (UniProt Q15796) was tested. Which “log2 mean competition ratio” value did it give?
A: 0.0976

Q: With SLC27A2 C301 (UniProt O14975) as the target, how does the “log2 mean competition ratio” value read?
A: -0.0514

Q: Which “log2 mean competition ratio” value does the source give for SKIV2L C579 (UniProt Q15477) here?
A: 0.123

Q: For SLC47A1 C466, which “log2 mean competition ratio” value is on record?
A: 0.133

Q: Which “log2 mean competition ratio” value does the source give for SMPD4 C164 (UniProt Q9NXE4) here?
A: 0.0311

Q: SLC39A6 C146 (UniProt Q13433) was tested. Which “log2 mean competition ratio” value did it give?
A: -0.205

Q: Which “log2 mean competition ratio” value does the source give for SLC25A13 C565 (UniProt Q9UJS0) here?
A: 0.114
